These are yes or no findings as the source states them, for the method shown. Some binding calls cover weakened binding; strength is not graded here.
Target: T1, mouse CP2c protein (mouse) (UniProt Q9ERA0)
T1 sequence (looked up): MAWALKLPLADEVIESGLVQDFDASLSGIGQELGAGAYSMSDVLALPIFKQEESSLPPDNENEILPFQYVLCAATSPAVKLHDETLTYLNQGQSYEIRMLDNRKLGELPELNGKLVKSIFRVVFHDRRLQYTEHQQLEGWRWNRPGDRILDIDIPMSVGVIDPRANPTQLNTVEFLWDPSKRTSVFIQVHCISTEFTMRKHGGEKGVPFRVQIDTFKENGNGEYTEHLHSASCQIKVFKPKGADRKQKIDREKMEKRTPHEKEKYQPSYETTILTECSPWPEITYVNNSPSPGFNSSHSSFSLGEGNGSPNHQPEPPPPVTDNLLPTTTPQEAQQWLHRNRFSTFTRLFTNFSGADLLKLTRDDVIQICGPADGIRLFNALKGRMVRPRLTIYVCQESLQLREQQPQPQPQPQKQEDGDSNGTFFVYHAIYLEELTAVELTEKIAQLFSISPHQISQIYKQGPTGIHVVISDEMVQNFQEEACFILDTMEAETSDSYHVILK
Assay: phage display

HERRESNYPQRP [Peptide 5]
binding: binds
